Article PMC10104830
No constants are given. Whether binding was seen depends on the method and setting. For some of these results: In cells and extracts the contact can be indirect. Some binding calls cover weakened binding; strength is not graded here. Where a sequence is shown, tags or fusion partners need not be part of it.

T1: GAL4BD-SMXL5 fusion protein (Arabidopsis thaliana) (UniProt Q9LU73)
T1 sequence: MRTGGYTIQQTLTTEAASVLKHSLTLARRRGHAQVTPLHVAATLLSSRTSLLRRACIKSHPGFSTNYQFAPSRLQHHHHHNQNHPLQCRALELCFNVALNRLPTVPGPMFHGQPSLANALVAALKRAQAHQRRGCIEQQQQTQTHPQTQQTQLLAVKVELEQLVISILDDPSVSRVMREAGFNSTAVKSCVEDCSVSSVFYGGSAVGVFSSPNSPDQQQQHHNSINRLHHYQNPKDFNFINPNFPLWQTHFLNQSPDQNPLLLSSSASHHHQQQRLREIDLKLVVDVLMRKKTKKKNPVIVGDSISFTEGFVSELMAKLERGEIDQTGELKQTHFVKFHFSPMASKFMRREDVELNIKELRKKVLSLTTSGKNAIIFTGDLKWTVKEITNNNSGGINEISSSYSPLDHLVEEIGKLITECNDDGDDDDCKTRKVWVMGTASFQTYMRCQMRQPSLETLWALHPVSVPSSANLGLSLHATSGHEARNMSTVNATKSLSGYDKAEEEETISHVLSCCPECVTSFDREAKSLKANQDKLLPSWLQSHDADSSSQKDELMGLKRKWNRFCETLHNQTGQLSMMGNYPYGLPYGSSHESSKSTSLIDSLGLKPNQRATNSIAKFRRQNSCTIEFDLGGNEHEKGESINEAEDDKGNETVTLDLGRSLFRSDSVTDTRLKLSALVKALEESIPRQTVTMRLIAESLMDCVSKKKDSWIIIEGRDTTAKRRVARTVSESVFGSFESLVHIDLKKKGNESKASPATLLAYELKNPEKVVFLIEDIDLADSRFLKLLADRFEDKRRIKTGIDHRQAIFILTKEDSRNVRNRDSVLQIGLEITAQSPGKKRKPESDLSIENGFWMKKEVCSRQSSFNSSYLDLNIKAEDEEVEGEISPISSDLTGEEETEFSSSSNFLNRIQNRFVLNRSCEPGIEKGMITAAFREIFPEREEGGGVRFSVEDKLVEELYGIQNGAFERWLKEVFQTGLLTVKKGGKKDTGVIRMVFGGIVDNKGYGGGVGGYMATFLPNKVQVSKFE

T2: SMXL5-3xHA (Arabidopsis thaliana) (UniProt Q9LU73)
T2 sequence: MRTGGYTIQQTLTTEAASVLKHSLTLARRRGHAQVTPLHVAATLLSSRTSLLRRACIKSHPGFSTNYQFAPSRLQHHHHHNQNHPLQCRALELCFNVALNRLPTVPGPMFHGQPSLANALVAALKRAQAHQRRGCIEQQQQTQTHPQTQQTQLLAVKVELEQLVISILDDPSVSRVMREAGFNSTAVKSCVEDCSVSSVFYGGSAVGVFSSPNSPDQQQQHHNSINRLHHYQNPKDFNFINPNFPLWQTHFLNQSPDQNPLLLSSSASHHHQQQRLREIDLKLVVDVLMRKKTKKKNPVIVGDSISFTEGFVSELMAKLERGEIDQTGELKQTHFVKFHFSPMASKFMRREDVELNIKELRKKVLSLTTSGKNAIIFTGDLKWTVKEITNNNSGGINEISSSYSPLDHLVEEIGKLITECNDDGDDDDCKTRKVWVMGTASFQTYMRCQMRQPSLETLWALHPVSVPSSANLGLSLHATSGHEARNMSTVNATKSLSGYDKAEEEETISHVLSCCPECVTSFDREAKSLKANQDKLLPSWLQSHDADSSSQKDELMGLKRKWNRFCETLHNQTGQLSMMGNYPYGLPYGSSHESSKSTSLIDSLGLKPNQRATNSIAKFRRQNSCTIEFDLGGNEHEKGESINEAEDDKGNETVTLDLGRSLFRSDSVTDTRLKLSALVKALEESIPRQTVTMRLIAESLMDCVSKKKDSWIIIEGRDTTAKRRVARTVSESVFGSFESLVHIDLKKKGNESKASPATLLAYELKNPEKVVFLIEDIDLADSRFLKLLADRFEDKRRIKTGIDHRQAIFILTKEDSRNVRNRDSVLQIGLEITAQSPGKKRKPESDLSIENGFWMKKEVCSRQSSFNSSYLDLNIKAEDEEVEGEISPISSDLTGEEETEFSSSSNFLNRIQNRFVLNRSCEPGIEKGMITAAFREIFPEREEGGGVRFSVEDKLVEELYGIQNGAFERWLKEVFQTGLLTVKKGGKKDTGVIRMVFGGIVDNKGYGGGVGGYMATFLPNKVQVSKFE

T3: SMXL5-mCherry (Arabidopsis thaliana) (UniProt Q9LU73)
T3 sequence: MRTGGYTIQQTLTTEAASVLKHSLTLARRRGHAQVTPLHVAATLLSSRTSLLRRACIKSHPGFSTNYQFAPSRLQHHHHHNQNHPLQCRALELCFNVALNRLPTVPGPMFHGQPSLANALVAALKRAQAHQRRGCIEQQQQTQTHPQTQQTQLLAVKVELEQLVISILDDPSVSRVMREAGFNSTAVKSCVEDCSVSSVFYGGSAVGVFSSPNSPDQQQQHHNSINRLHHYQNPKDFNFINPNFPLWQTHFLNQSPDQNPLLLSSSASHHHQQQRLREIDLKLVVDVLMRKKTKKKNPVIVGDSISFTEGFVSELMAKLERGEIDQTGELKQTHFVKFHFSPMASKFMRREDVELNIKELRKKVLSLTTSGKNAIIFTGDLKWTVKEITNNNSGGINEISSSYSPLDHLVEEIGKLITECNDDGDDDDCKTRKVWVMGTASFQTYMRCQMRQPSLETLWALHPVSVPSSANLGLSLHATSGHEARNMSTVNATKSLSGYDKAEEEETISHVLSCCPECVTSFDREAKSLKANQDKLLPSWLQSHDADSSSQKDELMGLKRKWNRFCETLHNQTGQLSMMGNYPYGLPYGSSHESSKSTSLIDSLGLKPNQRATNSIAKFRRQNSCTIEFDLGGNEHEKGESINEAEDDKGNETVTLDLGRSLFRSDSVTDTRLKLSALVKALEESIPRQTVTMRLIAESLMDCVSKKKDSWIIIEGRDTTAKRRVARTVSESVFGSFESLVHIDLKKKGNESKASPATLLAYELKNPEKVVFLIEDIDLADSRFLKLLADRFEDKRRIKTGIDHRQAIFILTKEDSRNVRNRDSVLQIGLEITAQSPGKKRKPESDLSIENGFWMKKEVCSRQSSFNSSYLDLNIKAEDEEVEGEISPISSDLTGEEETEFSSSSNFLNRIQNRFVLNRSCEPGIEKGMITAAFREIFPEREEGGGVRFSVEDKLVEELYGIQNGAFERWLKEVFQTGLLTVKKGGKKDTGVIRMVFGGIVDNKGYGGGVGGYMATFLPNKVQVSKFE


Key:
[1] = molecular target: T1, GAL4BD-SMXL5 fusion protein (Arabidopsis thaliana); assay: two-hybrid; Matchmaker Two-Hybrid System 3, yeast strain AH109; dilution series (OD600 1-0.001) grown for 3 days on SD -Leu/-Trp/-His/-Ade selecting for interaction; SMXL5 fused to GAL4 BD
[2] = molecular target: T2, SMXL5-3xHA (Arabidopsis thaliana); assay: co-IP; protein extracts of N. benthamiana leaves transiently co-expressing both proteins (35S promoter); Anti-HA MicroBeads, 2.5 h at 4 °C; western blot with anti-HA and anti-Myc
[3] = molecular target: T3, SMXL5-mCherry (Arabidopsis thaliana); assay: FRET or BRET; FRET-FLIM in nuclei of transiently transformed N. benthamiana epidermal leaf cells; OBE3-mGFP donor, mCherry fusions as acceptor; donor lifetime measured

Binder | binding [1] | further results
GAL4AD-OBE3 fusion protein (protein, UniProt Q94B71 1-733) MIGEKDLAGDGECSRTKTSKPRFSNLNNQTHQDDKTGQYHQKGVDFLNVRSNNLDGGFSSKSSPRSGNELTLSYLCENSGKLAESLGQKGKEVVTFSENSSYDDKWVERDFFNLREMNPNSSKRKAHEEEEEAEEEEDKKSNKIETLNLSLALPDVSLSLTASNAVKRPRVVTSERTTTSFSNDFTATAPSMSYSYSHPFSHNISCSMTRNSTDFDCSVGKDDHIWCAGEGTNGSVHSRFRPIGDGGVALANNPVSGKPSSSADYSFFPSELPARPGNEVTISGDSRKKVANLEDNDAVRSERVLYDIVSKSISSVALIIQGMADETLESAKEYLRNLIDSPEKKEKLVNLQNQIDKRSDLSKETLSKCVKDQLDILVAVRTGLKYFLSGKIRIPMNELVEIFLFLRCRNVNCKSLLPVDDCECKICSNNKGFCSSCMCPVCLRFDSASNTCSWVGCDVCSHWCHAACGIQKNLIKPGHSLKGQRGTTEMMFHCIGCAHKSEMFGFVKDVFVCCAKNWGLETLIKELDCVRKVFRGSDDAKGKALHLKANEMVKKLESKQISPLDASNFIIQFFNYAESIPEIPDPPRELTVAAETSYRKDEASVTPSTSKDQKKKSFALTDAMMNSFDSLESMVRIKEAETRMFQKKADEARIEAESFKRMIEMKTEKMEEEYTEKLARLCLQETEERRRNKLEELKKLENSHCDYRNMKLRMEAEIAGLLKRMEVTRQQLV | binds | –
OBE2 protein tested with SMXL5 in yeast cells in independent experiments (protein, UniProt Q9LUB7 1-574) MGTSSGSNHPHQMLPPRQQQRSGGGLETALSLVSSDQEPRRESPAESASSQETWPLGDTVAGKKSMSQKTEPDSMEQTVNVMHHVSNADKVSVRDIARERVELVAERMHRLPDEFLDELKNGLKSILEGNVAQSVDEFMFLQKVVQSRTDLSSVTLVRAHRVQLEILVAINTGIQAFLHPNISLSQPSLIEIFVYKRCRNIACQNQLPADDCYCDICTNRKGFCNLCMCTICNKFDFSVNTCRWIGCDLCSHWTHTDCAIRDGQITTGSSAKNNTSGPGEIVFKCRACNRTSELLGWVKDVFQHCAPNWDRESLMKELDFVSRIFRGSEDQRGRKLFWKCEELIDKIKGGLAEATAAKLILMFFQEIESDSAKSFENGEGGRLMAPQDACNRIAEVVQETLRKMEIVAEEKMRMFKKARMALETCDRELEDKAKEVSELKAERQKKKLQIDELERIVRLKQAEADMFQLKANEAKREADRLQRIVLAKMDKSEEEYASNYLKQRLSEAEAEKQYLFEKIKLQENSRVASQSSGGGGDPSQVMMYSKIRDLLQGYNLSPKVDPQLNERNPFRSNP | binds | –
6xMyc-OBE3 (protein, UniProt Q94B71 1-733) MIGEKDLAGDGECSRTKTSKPRFSNLNNQTHQDDKTGQYHQKGVDFLNVRSNNLDGGFSSKSSPRSGNELTLSYLCENSGKLAESLGQKGKEVVTFSENSSYDDKWVERDFFNLREMNPNSSKRKAHEEEEEAEEEEDKKSNKIETLNLSLALPDVSLSLTASNAVKRPRVVTSERTTTSFSNDFTATAPSMSYSYSHPFSHNISCSMTRNSTDFDCSVGKDDHIWCAGEGTNGSVHSRFRPIGDGGVALANNPVSGKPSSSADYSFFPSELPARPGNEVTISGDSRKKVANLEDNDAVRSERVLYDIVSKSISSVALIIQGMADETLESAKEYLRNLIDSPEKKEKLVNLQNQIDKRSDLSKETLSKCVKDQLDILVAVRTGLKYFLSGKIRIPMNELVEIFLFLRCRNVNCKSLLPVDDCECKICSNNKGFCSSCMCPVCLRFDSASNTCSWVGCDVCSHWCHAACGIQKNLIKPGHSLKGQRGTTEMMFHCIGCAHKSEMFGFVKDVFVCCAKNWGLETLIKELDCVRKVFRGSDDAKGKALHLKANEMVKKLESKQISPLDASNFIIQFFNYAESIPEIPDPPRELTVAAETSYRKDEASVTPSTSKDQKKKSFALTDAMMNSFDSLESMVRIKEAETRMFQKKADEARIEAESFKRMIEMKTEKMEEEYTEKLARLCLQETEERRRNKLEELKKLENSHCDYRNMKLRMEAEIAGLLKRMEVTRQQLV | – | binding [2]: binds
OBE3-mGFP (protein, UniProt Q94B71 1-733) MIGEKDLAGDGECSRTKTSKPRFSNLNNQTHQDDKTGQYHQKGVDFLNVRSNNLDGGFSSKSSPRSGNELTLSYLCENSGKLAESLGQKGKEVVTFSENSSYDDKWVERDFFNLREMNPNSSKRKAHEEEEEAEEEEDKKSNKIETLNLSLALPDVSLSLTASNAVKRPRVVTSERTTTSFSNDFTATAPSMSYSYSHPFSHNISCSMTRNSTDFDCSVGKDDHIWCAGEGTNGSVHSRFRPIGDGGVALANNPVSGKPSSSADYSFFPSELPARPGNEVTISGDSRKKVANLEDNDAVRSERVLYDIVSKSISSVALIIQGMADETLESAKEYLRNLIDSPEKKEKLVNLQNQIDKRSDLSKETLSKCVKDQLDILVAVRTGLKYFLSGKIRIPMNELVEIFLFLRCRNVNCKSLLPVDDCECKICSNNKGFCSSCMCPVCLRFDSASNTCSWVGCDVCSHWCHAACGIQKNLIKPGHSLKGQRGTTEMMFHCIGCAHKSEMFGFVKDVFVCCAKNWGLETLIKELDCVRKVFRGSDDAKGKALHLKANEMVKKLESKQISPLDASNFIIQFFNYAESIPEIPDPPRELTVAAETSYRKDEASVTPSTSKDQKKKSFALTDAMMNSFDSLESMVRIKEAETRMFQKKADEARIEAESFKRMIEMKTEKMEEEYTEKLARLCLQETEERRRNKLEELKKLENSHCDYRNMKLRMEAEIAGLLKRMEVTRQQLV | – | binding [3]: binds
